Laboratory results as given in patent US8993782B2, “Cis-alkoxyspirocyclic biphenyl-substituted tetramic acid derivatives” (Bayer CropScience AG, priority 2006, dated 2015).
Some results were stated once for a whole list of compounds, not compound by compound.

Assays:
Assay type in all cases: in vivo
Tetranychus urticae [1] = test: Tetranychus test, OP-resistant (TETRUR spray treatment); conditions: sprayed bean leaf discs
Myzus persicae [2] = test: Myzus test (MYZUPE spray treatment); conditions: 500 g/ha, sprayed chinese cabbage discs
Spodoptera frugiperda = Spodoptera frugiperda test (SPODFR spray treatment); conditions: 500 g/ha, sprayed maize leaf discs
Lucilia cuprina larvae = test: Lucilia cuprina test (LUCICU); conditions: 100 ppm, treated horse meat
Echinocloa crus-galli [3] = test: Herbicidal pre-emergence action; conditions: 320 g/ha of a.i./ha, assessment after 3 weeks
Setaria viridis [4] = test: Herbicidal post-emergence action; conditions: 80 g/ha, assessment after about 3 weeks
Echinocloa crus-galli [5] = test: Herbicidal post-emergence action; conditions: 80 g/ha, assessment after about 3 weeks
Setaria viridis [6] = test: Herbicidal pre-emergence action; conditions: 320 g/ha of a.i./ha, assessment after 3 weeks
Boophilus microplus = Boophilus microplus test (BOOPMI injection); conditions: 20 μg/animal, injection into the abdomen
Lolium multiflorum = test: Herbicidal pre-emergence action; conditions: 320 g/ha of a.i./ha, assessment after 3 weeks
Phaedon cochleariae = test: Phaedon test (PHAECO spray treatment); conditions: 500 g/ha, sprayed chinese cabbage discs
Tetranychus urticae [7] = test: Tetranychus test, OP-resistant (TETRUR G), watering; conditions: 20 ppm, bean plants watered, after 14 days
Aphis gossypii = Aphis gossypii test (APHIGO G), watering; conditions: 20 ppm, cotton plants watered, after 10 days
Myzus persicae [8] = test: Myzus persicae test (MYZUPE G), watering; conditions: 20 ppm, cabbage plants watered, after 10 days

SMILES | activity (spidermites killed) (Tetranychus urticae [1]; 100 g/ha) | activity (aphids killed) (Myzus persicae [2]) | activity (caterpillars killed) (Spodoptera frugiperda) | activity (kill of larvae) (Lucilia cuprina larvae) | herbicidal activity (Echinocloa crus-galli [3]) | herbicidal activity (Setaria viridis [4]) | herbicidal activity (Echinocloa crus-galli [5]) | herbicidal activity (Setaria viridis [6]) | activity (100% = none of the ticks has laid fertile eggs) (Boophilus microplus) | herbicidal activity (Lolium multiflorum) | activity (beetle larvae killed) (Phaedon cochleariae) | activity (kill of spidermites) (Tetranychus urticae [7]) | activity (kill of aphids) (Aphis gossypii) | activity (spidermites killed) (Tetranychus urticae [1]; 20 g/ha) | activity (kill of aphids) (Myzus persicae [8])
COC1CCC2(CC1)NC(=O)C(c1c(C)ccc(-c3ccc(F)cc3)c1C)=C2O (stereo not shown) [I-a-2] | > 80% | ≥ 80% | ≥ 80% | ≥ 80% | ≥ 80% | ≥ 80% | ≥ 80% | ≥ 80% | ≥ 80% | ≥ 80% | – | – | – | – | –
COC1CCC2(CC1)NC(=O)C(c1c(C)ccc(-c3ccc(F)c(F)c3)c1C)=C2O (stereo not shown) [I-a-4] | – | ≥ 80% | ≥ 80% | – | ≥ 80% | – | – | ≥ 80% | – | ≥ 80% | ≥ 80% | – | – | – | –
COC1CCC2(CC1)NC(=O)C(c1c(C)ccc(-c3ccc(F)c(Cl)c3)c1C)=C2O (stereo not shown) [I-a-6] | – | ≥ 80% | – | – | – | – | – | – | – | – | ≥ 80% | – | – | – | –
COc1cc(-c2ccc(C)c(C3=C(O)C4(CCC(OC)CC4)NC3=O)c2C)ccc1F (stereo not shown) [I-a-7] | – | ≥ 80% | – | – | – | – | – | – | – | – | ≥ 80% | – | – | – | –
COC1CCC2(CC1)NC(=O)C(c1c(C)ccc(-c3cccc(F)c3)c1C)=C2O (stereo not shown) [I-a-8] | – | ≥ 80% | – | – | – | – | – | – | – | – | ≥ 80% | – | – | – | –
COC1CCC2(CC1)NC(=O)C(c1cc(-c3ccc(F)cc3)ccc1C)=C2OC(=O)C(C)C (stereo not shown) [I-b-2] | > 80% | ≥ 80% | ≥ 80% | – | ≥ 80% | ≥ 80% | ≥ 80% | ≥ 80% | – | ≥ 80% | – | ≥ 80% | – | – | –
COC1CCC2(CC1)NC(=O)C(c1c(C)ccc(-c3ccc(F)cc3)c1C)=C2OC(=O)C(C)C (stereo not shown) [I-b-3] | > 80% | ≥ 80% | ≥ 80% | – | ≥ 80% | – | – | ≥ 80% | – | ≥ 80% | – | ≥ 80% | – | – | –
COC1CCC2(CC1)NC(=O)C(c1c(C)ccc(-c3ccc(F)cc3)c1C)=C2OC(C)=O (stereo not shown) [I-b-4] | > 80% | ≥ 80% | ≥ 80% | – | ≥ 80% | – | – | ≥ 80% | – | ≥ 80% | – | ≥ 80% | ≥ 80% | – | –
CCOC(=O)OC1=C(c2c(C)ccc(-c3ccc(F)cc3)c2C)C(=O)NC12CCC(OC)CC2 (stereo not shown) [I-c-2] | – | ≥ 80% | ≥ 80% | – | ≥ 80% | – | – | ≥ 80% | – | ≥ 80% | – | ≥ 80% | ≥ 80% | ≥ 80% | ≥ 80%
COC(=O)OC1=C(c2c(C)ccc(-c3ccc(F)cc3)c2C)C(=O)NC12CCC(OC)CC2 (stereo not shown) [I-c-3] | > 80% | ≥ 80% | ≥ 80% | – | ≥ 80% | ≥ 80% | ≥ 80% | ≥ 80% | – | ≥ 80% | – | ≥ 80% | ≥ 80% | – | –
COC(=O)OC1=C(c2cc(-c3ccc(F)cc3)ccc2C)C(=O)NC12CCC(OC)CC2 (stereo not shown) [I-c-4] | > 80% | ≥ 80% | ≥ 80% | – | ≥ 80% | – | – | ≥ 80% | – | ≥ 80% | – | ≥ 80% | – | – | ≥ 80%
